The list shows a part of the results.
Compound: Cc1cc(ccc1-c1ccccc1)C(=O)N1CCCN(CC1)C(=O)CCl [compound 10]
Assay: probe-labelled cysteine peptide fold change vs DMSO (competition) (log2 fold change); higher = less target engagement (more negative = stronger competition)
Conditions: 10 µM; THP-1; incubation time: 4 h
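Further: competitive profiling in live THP-1 cells: cysteine peptides tagged with an iodoacetamide desthiobiotin (IA-DTB) probe, intensity after compound treatment relative to DMSO-treated cells.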

The chains behind the UniProt entries cited, without tags or fusion partners. Where a name states a change or a piece, a line headed by the entry shows the natural chain unless it says otherwise.
UniProt O60566, whole entry, looked up: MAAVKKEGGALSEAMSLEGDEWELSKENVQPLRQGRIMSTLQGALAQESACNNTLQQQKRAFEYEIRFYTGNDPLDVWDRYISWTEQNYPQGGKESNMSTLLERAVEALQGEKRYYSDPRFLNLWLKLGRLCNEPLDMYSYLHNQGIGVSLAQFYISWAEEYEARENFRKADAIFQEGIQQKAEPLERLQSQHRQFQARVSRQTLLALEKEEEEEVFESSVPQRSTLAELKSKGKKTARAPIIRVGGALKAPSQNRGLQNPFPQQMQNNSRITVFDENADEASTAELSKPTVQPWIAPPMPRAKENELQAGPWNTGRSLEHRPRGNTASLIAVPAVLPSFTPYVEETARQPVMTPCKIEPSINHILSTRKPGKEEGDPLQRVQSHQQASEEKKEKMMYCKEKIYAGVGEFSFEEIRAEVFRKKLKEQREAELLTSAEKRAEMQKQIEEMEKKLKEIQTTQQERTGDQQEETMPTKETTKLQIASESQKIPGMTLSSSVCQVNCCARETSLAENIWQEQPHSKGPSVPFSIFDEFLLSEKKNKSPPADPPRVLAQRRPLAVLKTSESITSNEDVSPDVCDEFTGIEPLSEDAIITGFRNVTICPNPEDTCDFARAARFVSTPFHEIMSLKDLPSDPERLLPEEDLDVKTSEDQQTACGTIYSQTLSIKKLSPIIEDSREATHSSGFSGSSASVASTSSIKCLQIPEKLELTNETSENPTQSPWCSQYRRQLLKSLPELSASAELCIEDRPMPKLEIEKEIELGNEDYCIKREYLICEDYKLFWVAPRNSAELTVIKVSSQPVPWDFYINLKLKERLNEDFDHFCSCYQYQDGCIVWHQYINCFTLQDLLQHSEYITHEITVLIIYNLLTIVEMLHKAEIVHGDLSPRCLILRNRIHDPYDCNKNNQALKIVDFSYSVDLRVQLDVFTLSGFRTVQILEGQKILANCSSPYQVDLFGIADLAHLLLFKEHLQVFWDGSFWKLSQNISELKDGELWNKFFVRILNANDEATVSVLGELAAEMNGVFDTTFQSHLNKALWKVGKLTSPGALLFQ
UniProt Q9H0W9: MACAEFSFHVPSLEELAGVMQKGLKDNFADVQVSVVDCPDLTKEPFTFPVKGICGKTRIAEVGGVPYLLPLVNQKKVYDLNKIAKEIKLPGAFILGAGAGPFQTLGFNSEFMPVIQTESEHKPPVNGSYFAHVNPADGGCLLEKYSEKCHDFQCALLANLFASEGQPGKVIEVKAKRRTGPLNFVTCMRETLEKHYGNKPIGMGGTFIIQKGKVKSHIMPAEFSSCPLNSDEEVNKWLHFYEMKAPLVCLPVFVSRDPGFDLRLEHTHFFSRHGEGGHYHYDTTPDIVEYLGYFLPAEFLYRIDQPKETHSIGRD
UniProt A6NDU8: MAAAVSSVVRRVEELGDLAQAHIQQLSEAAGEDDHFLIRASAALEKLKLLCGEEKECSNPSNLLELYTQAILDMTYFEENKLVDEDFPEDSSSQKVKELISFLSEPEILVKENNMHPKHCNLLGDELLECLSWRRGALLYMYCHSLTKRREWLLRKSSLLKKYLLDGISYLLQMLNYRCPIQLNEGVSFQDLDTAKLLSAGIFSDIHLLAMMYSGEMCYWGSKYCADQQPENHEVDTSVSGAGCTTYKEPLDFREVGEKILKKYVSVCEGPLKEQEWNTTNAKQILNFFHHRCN
UniProt Q9Y6E2: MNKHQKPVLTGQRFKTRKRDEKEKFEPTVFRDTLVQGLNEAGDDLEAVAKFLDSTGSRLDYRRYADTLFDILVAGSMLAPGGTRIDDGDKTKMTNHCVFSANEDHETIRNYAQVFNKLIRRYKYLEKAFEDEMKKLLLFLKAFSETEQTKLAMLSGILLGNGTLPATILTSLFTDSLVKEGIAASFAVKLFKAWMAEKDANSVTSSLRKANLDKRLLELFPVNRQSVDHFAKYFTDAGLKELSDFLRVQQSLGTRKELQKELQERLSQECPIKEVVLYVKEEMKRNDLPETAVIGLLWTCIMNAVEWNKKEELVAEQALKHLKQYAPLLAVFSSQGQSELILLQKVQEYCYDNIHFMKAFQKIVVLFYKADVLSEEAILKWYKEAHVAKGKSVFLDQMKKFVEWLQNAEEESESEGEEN
UniProt Q9BX63: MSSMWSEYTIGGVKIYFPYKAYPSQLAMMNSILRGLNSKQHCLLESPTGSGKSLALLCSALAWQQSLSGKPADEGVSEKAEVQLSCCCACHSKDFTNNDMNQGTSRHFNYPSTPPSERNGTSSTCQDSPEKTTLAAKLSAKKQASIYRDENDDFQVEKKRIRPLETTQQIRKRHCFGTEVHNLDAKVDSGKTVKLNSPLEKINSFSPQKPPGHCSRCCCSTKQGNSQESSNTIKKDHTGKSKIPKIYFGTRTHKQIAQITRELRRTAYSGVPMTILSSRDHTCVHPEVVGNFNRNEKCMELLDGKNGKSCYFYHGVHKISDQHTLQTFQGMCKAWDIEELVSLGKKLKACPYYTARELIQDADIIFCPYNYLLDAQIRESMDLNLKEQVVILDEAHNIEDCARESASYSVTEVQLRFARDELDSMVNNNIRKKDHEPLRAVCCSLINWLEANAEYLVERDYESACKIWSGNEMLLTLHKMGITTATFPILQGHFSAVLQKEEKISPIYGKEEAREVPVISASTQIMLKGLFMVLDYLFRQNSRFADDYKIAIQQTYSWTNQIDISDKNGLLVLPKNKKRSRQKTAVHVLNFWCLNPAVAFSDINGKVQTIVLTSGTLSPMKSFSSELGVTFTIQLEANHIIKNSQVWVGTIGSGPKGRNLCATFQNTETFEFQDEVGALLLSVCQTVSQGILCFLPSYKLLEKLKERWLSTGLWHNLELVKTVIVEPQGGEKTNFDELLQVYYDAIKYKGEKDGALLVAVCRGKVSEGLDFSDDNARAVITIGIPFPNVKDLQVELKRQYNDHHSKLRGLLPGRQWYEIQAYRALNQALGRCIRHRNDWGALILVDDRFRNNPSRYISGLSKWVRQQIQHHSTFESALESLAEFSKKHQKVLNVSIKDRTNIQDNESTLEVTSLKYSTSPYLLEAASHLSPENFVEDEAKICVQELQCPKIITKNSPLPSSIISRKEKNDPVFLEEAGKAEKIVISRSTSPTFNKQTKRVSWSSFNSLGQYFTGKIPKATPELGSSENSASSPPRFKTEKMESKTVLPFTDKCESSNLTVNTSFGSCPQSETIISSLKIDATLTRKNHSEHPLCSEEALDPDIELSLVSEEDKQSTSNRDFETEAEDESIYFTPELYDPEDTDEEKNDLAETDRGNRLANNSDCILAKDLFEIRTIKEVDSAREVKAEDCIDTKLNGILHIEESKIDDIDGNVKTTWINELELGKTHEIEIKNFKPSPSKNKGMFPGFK
UniProt Q01518, whole entry, looked up: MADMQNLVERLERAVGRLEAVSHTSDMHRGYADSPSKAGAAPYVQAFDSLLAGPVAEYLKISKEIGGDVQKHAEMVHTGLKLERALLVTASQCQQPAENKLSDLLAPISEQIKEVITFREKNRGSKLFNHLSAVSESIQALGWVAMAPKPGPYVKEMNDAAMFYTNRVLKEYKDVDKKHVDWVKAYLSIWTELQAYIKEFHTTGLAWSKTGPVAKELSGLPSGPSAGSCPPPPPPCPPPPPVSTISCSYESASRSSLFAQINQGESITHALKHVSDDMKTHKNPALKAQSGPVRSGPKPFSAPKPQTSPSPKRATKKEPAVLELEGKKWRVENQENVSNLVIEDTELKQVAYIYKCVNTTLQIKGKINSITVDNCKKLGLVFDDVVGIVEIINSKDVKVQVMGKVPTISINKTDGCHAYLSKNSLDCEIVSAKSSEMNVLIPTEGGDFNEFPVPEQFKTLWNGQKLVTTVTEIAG
UniProt Q9HAS0: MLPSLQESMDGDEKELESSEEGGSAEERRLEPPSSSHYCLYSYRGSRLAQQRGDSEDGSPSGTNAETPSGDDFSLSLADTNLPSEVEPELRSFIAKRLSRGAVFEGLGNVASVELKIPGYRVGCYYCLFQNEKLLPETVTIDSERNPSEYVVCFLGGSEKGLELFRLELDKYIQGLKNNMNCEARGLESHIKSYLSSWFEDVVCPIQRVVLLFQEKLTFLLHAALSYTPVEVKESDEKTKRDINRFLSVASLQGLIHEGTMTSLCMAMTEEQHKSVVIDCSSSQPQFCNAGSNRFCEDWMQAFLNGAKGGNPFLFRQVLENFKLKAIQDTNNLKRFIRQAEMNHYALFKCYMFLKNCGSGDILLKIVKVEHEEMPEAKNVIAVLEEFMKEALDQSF
UniProt Q9NPI1: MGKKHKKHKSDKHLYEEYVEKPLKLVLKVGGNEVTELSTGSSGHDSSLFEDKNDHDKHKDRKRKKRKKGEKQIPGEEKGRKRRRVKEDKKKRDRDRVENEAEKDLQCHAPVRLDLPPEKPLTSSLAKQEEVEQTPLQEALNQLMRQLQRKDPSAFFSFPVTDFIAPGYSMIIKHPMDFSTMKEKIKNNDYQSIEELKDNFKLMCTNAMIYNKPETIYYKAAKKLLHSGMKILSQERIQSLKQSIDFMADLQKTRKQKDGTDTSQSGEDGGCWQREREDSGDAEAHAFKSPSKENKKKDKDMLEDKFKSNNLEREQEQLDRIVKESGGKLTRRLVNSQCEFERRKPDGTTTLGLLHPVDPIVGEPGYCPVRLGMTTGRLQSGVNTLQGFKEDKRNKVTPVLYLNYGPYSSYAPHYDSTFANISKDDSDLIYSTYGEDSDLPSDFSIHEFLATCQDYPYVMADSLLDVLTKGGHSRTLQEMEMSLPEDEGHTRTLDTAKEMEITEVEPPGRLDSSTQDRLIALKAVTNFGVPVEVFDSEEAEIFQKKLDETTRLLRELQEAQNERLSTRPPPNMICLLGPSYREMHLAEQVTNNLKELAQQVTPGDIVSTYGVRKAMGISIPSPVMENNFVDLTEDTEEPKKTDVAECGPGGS
UniProt Q6ZRI6: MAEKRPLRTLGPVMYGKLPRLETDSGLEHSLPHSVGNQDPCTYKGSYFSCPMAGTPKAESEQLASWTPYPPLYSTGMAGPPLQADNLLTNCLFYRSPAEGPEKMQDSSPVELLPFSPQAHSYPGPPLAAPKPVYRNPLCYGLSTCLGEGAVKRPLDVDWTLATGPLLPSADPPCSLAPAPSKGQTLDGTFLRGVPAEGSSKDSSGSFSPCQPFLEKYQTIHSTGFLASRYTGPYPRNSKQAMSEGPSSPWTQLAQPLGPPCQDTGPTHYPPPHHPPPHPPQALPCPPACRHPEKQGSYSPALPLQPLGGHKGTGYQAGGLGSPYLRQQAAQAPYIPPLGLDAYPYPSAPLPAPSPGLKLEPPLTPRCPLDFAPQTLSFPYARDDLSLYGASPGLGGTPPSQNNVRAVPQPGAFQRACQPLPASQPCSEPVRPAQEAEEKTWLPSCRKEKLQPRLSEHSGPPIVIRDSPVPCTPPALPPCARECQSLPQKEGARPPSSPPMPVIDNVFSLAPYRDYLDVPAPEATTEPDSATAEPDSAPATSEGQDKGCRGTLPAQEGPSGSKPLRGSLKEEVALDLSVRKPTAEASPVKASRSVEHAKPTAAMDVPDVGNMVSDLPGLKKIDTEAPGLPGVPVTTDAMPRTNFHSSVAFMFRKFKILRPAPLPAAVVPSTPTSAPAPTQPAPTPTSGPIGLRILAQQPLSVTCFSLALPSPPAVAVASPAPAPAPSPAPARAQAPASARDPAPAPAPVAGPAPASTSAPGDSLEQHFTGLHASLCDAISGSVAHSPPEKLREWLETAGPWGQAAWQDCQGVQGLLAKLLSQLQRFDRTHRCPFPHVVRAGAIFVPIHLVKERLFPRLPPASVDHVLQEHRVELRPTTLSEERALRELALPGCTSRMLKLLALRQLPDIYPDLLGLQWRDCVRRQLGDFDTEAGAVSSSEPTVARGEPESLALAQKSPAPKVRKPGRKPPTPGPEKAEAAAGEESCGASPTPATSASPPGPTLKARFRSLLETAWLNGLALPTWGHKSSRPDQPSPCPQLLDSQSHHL
UniProt Q9NQ89: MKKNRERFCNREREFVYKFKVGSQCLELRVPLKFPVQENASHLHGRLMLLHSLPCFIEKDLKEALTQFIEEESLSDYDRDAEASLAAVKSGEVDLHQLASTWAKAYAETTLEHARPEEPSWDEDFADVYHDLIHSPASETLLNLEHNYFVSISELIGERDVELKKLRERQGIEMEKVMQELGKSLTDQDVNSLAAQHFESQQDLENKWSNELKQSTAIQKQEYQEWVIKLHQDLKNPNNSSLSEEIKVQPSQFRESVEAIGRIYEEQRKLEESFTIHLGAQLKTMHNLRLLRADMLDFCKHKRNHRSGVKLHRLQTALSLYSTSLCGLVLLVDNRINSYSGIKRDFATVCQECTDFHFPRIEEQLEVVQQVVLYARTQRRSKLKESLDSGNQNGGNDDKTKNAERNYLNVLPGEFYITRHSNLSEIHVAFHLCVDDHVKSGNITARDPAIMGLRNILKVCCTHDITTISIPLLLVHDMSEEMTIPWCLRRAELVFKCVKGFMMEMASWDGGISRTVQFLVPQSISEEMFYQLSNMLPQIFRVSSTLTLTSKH

Row | Target | probe-labelled cysteine peptide fold change
1 | CAND1_Q86VP6_71_CLGPLVSK (UniProt Q86VP6) | 0.0934
2 | CAD_P27708_1529_CDFALFLGASSENAGTLGTVAGSAAGLK (UniProt P27708) | 0.102
3 | BUB1B_O60566_51_IMSTLQGALAQESACNNTLQQQK (UniProt O60566) | -0.0722
4 | C1orf123_Q9NWV4_102_TIVEFECR (UniProt Q9NWV4) | -0.00571
5 | C11orf54_Q9H0W9_154_CHDFQCALLANLFASEGQPGK (UniProt Q9H0W9) | -0.0884
6 | C5orf51_A6NDU8_120+130_HCNLLGDELLECLSWR (UniProt A6NDU8) | -0.398
7 | BRCA1_P38398_1697_TDAEFVCER (UniProt P38398) | 0.328
8 | CAND1_Q86VP6_571_DLFTCTIKR (UniProt Q86VP6) | -0.0714
9 | CACNA1G_O43497_1019_CLALVSLGEHPELR (UniProt O43497) | 0.092
10 | BZW2_Q9Y6E2_270_LSQECPIK (UniProt Q9Y6E2) | -0.0657
11 | C5orf22_Q49AR2_195_LALEDSENTASTNCDSSSEGLEK (UniProt Q49AR2) | -0.0556
12 | CANX_P27824_160_PFLFDTKPLIVQYEVNFQNGIECGGAYVK (UniProt P27824) | -0.104
13 | BTAF1_O14981_862_VHTFAACAVVSLQQLPEK (UniProt O14981) | 0.085
14 | C3_P01024_662_AELQCPQPAAR (UniProt P01024) | -0.319
15 | CALR_P27797_105_HEQNIDCGGGYVK (UniProt P27797) | -0.0595
16 | BRIP1_Q9BX63_310_SCYFYHGVHK (UniProt Q9BX63) | 0.0582
17 | C9orf64_Q5T6V5_170_FGGSFLNCVR (UniProt Q5T6V5) | 0.134
18 | CAP1_Q01518_416_TDGCHAYLSK (UniProt Q01518) | -0.111
19 | BTBD10_Q9BSF8_86_TESQLTPCIR (UniProt Q9BSF8) | -0.608
20 | CABIN1_Q9Y6J0_829_LTNNLIQVIDCSMAVQEEAK (UniProt Q9Y6J0) | -0.118

Row | Target | probe-labelled cysteine peptide fold change
21 | BTAF1_O14981_371_ETCAQTLGVVLK (UniProt O14981) | 0.267
22 | C2CD2L_O14523_385_RQLCPLTPGPGK (UniProt O14523) | 0.0512
23 | CAND2_O75155_375_CIAALISSRPDLLPDFHCTLAPVLIR (UniProt O75155) | 0.136
24 | C17orf75_Q9HAS0_296_FCEDWMQAFLNGAK (UniProt Q9HAS0) | 0.213
25 | BTK_Q06187_165_NAMGCQILENR (UniProt Q06187) | -0.184
26 | BRCA1_P38398_712_CSNTSELK (UniProt P38398) | 0.119
27 | BTAF1_O14981_1626_QLLLDCGLGNGSTSESGTESVVAQHR (UniProt O14981) | 0.382
28 | BRD7_Q9NPI1_574_LSTRPPPNMICLLGPSYR (UniProt Q9NPI1) | -0.0821
29 | BRCA1_P38398_348_KVDLNADPLCER (UniProt P38398) | -0.139
30 | BRD4_O60885_674_YVTSCLR (UniProt O60885) | 0.119
31 | CAMKK2_Q96RR4_397_IMCLHSK (UniProt Q96RR4) | -0.139
32 | C6orf106_Q9H6K1_18_FSCLGTTDK (UniProt Q9H6K1) | -0.07
33 | C15orf39_Q6ZRI6_831_CPFPHVVR (UniProt Q6ZRI6) | -0.0204
34 | C12orf4_Q9NQ89_350_DFATVCQECTDFHFPR (UniProt Q9NQ89) | -0.276
35 | CANX_P27824_160_PLIVQYEVNFQNGIECGGAYVK (UniProt P27824) | -0.141
36 | BTK_Q06187_464_LVQLYGVCTK (UniProt Q06187) | 0.106
37 | BUB1B_O60566_775_EYLICEDYK (UniProt O60566) | 0.268
38 | C2orf69_Q8N8R5_230_SSPSHTTNGCQGEK (UniProt Q8N8R5) | -0.103
39 | CAD_P27708_736_NSVTGGTAAFEPSVDYCVVK (UniProt P27708) | 0.156

Same assay, conditions: 50 µM; THP-1; incubation time: 4 h

Row | Target | probe-labelled cysteine peptide fold change
40 | CAND1_Q86VP6_71_CLGPLVSK (UniProt Q86VP6) | 0.125
41 | CAD_P27708_1529_CDFALFLGASSENAGTLGTVAGSAAGLK (UniProt P27708) | 0.0688
42 | BUB1B_O60566_51_IMSTLQGALAQESACNNTLQQQK (UniProt O60566) | -0.254
43 | C1orf123_Q9NWV4_102_TIVEFECR (UniProt Q9NWV4) | -0.0169
44 | C11orf54_Q9H0W9_154_CHDFQCALLANLFASEGQPGK (UniProt Q9H0W9) | -0.214
45 | C5orf51_A6NDU8_120+130_HCNLLGDELLECLSWR (UniProt A6NDU8) | -0.774
46 | BRCA1_P38398_1697_TDAEFVCER (UniProt P38398) | 0.623
47 | CAND1_Q86VP6_571_DLFTCTIKR (UniProt Q86VP6) | -0.4
48 | CACNA1G_O43497_1019_CLALVSLGEHPELR (UniProt O43497) | 0.122
49 | BZW2_Q9Y6E2_270_LSQECPIK (UniProt Q9Y6E2) | -0.258
50 | C5orf22_Q49AR2_195_LALEDSENTASTNCDSSSEGLEK (UniProt Q49AR2) | 0.0623
51 | CANX_P27824_160_PFLFDTKPLIVQYEVNFQNGIECGGAYVK (UniProt P27824) | 0.423
52 | BTAF1_O14981_862_VHTFAACAVVSLQQLPEK (UniProt O14981) | 0.377
53 | C3_P01024_662_AELQCPQPAAR (UniProt P01024) | -1.02
54 | CALR_P27797_105_HEQNIDCGGGYVK (UniProt P27797) | 0.195
55 | BRIP1_Q9BX63_310_SCYFYHGVHK (UniProt Q9BX63) | -0.182
56 | C9orf64_Q5T6V5_170_FGGSFLNCVR (UniProt Q5T6V5) | 0.227
57 | CAP1_Q01518_416_TDGCHAYLSK (UniProt Q01518) | 0.0223
58 | BTBD10_Q9BSF8_86_TESQLTPCIR (UniProt Q9BSF8) | -1.07
59 | CABIN1_Q9Y6J0_829_LTNNLIQVIDCSMAVQEEAK (UniProt Q9Y6J0) | 0.138

Row | Target | probe-labelled cysteine peptide fold change
60 | BTAF1_O14981_371_ETCAQTLGVVLK (UniProt O14981) | -0.0208
61 | C2CD2L_O14523_385_RQLCPLTPGPGK (UniProt O14523) | 0.00256
62 | CAND2_O75155_375_CIAALISSRPDLLPDFHCTLAPVLIR (UniProt O75155) | -0.42
63 | C17orf75_Q9HAS0_296_FCEDWMQAFLNGAK (UniProt Q9HAS0) | 0.513
64 | BTK_Q06187_165_NAMGCQILENR (UniProt Q06187) | -0.34
65 | BRCA1_P38398_712_CSNTSELK (UniProt P38398) | 0.0735
66 | BTAF1_O14981_1626_QLLLDCGLGNGSTSESGTESVVAQHR (UniProt O14981) | 0.287
67 | BRD7_Q9NPI1_574_LSTRPPPNMICLLGPSYR (UniProt Q9NPI1) | -0.402
68 | BRCA1_P38398_348_KVDLNADPLCER (UniProt P38398) | -0.043
69 | BRD4_O60885_674_YVTSCLR (UniProt O60885) | -0.0107
70 | CAMKK2_Q96RR4_397_IMCLHSK (UniProt Q96RR4) | -0.774
71 | C6orf106_Q9H6K1_18_FSCLGTTDK (UniProt Q9H6K1) | -0.525
72 | C15orf39_Q6ZRI6_831_CPFPHVVR (UniProt Q6ZRI6) | -0.937
73 | C12orf4_Q9NQ89_350_DFATVCQECTDFHFPR (UniProt Q9NQ89) | 0.0937
74 | CANX_P27824_160_PLIVQYEVNFQNGIECGGAYVK (UniProt P27824) | 0.376
75 | BTK_Q06187_464_LVQLYGVCTK (UniProt Q06187) | -0.029
76 | BUB1B_O60566_775_EYLICEDYK (UniProt O60566) | -0.117
77 | C2orf69_Q8N8R5_230_SSPSHTTNGCQGEK (UniProt Q8N8R5) | -0.376
78 | CAD_P27708_736_NSVTGGTAAFEPSVDYCVVK (UniProt P27708) | 0.0229
